PubChem BioAssay AID1159578 | Peter MacCallum Cancer Centre | 2015
Here is an unselected part of about 18,000 reagents. Over the whole deposit, about 1,030 (5.7%) are marked active. 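Inactive calls also include pools with fewer than 3300 nuclei, whose migration was not assessed.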 Raw values vary from plate to plate and are shown uncorrected. Not all columns of the deposit are shown.

- Purpose: 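Genome-wide hunt for genes controlling movement of lymphatic endothelial cells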 (primary screen)
- System: human lymphatic endothelial cells
- Reagents: siRNA pool against human genes, 40 nM
- Duration: 48 h after transfection
- Read-out: 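Cells stained with dye and imaged after a scratch; covered wound area and nuclei counted, duplicates averaged, migration set against mock wells and turned into a robust z-score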
- Direction: migration robust z-score: higher = faster migration into the scratch; nuclei per well: higher = more cells in the well
- Active means: 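Migration changed when robust z exceeds 2 or falls below -2 and mean nuclei number is at least 3300; otherwise not called changed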
- Meaning of the calls: active = migration changed; inactive = no migration change, or too few cells

HOOK1 → migration robust z-score = 1.46; nuclei per well, duplicate mean = 6328; call = inactive
HPS5 → migration robust z-score = 1.28; nuclei per well, duplicate mean = 6342; call = inactive
RBM48 → migration robust z-score = 1.04; nuclei per well, duplicate mean = 5890; call = inactive
TMEM218 → migration robust z-score = -2.75; nuclei per well, duplicate mean = 5301; call = active
TMEM183A → migration robust z-score = -1.32; nuclei per well, duplicate mean = 5674; call = inactive
DCAF12 → migration robust z-score = -0.52; nuclei per well, duplicate mean = 5434; call = inactive
DEFB106A → migration robust z-score = -1.51; nuclei per well, duplicate mean = 6051; call = inactive
SH3BP5 → migration robust z-score = 0.43; nuclei per well, duplicate mean = 6083; call = inactive
ZNF286A → migration robust z-score = 0.97; nuclei per well, duplicate mean = 6781; call = inactive
PUS10 → migration robust z-score = -0.02; nuclei per well, duplicate mean = 5756; call = inactive
LYVE1 → migration robust z-score = -3.49; nuclei per well, duplicate mean = 3832; call = active
SFXN3 → migration robust z-score = 1.52; nuclei per well, duplicate mean = 4632; call = inactive
CGN → migration robust z-score = 3.08; nuclei per well, duplicate mean = 6452; call = active
KIAA0586 → migration robust z-score = -1.63; nuclei per well, duplicate mean = 3410; call = inactive

A run of entries taken from the entries so far, as a working copy:
HOOK1 → migration robust z-score = 1.46; nuclei per well, duplicate mean = 6328; call = inactive
HPS5 → migration robust z-score = 1.28; nuclei per well, duplicate mean = 6342; call = inactive
